From publication PMC10307882 come the findings set out here.

By UniProt entry, the sequences of proteins in these tests, tags left out.
UniProt Q9Z120: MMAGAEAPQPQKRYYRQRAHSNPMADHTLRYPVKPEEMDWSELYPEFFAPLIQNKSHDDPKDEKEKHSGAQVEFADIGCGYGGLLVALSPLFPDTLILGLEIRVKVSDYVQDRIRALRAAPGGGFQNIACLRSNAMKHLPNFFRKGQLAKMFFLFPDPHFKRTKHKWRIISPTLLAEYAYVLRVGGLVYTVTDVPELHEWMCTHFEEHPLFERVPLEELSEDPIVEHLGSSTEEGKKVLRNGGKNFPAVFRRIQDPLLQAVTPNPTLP

This experiment deals with T1, TMEM11 (mouse (endogenous in mouse cardiomyocytes)) (UniProt Q8BK08).
T1 sequence: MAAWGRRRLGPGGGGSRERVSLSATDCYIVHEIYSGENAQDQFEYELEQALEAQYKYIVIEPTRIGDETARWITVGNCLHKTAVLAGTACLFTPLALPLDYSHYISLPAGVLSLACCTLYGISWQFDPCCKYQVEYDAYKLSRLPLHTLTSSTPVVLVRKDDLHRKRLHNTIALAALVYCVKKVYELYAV
The experiment in a line: affinity purification with mass spectrometry; immunoprecipitation with anti-TMEM11 antibody from isolated cardiomyocytes, LC-MS/MS of the samples.

No constants are given. Whether binding was seen depends on the method and setting. In cells and extracts the contact can be indirect. Here binding means that the protein was enriched with, or labelled near, the bait; the list need not be complete.

Turning to “METTL1 (from UniProt Q9Z120 1-268) (enzyme)”, the binding entry is recorded as “binds”.
